# Structures can show the parent of a compound that is named as a salt. The list shows a part of the results. Hit calls seldom repeat between salt and free forms of one compound.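 Kinases, fused to nanoluciferase, were expressed in K562 cells; luminescence was measured every 4 h from 2 to 18 h as percent of control (DMSO = 100%, positive control = 0%). A time point is decreased if signal falls significantly (2 sigma). Hits were called by the authors by a rule that is not shown; the count of time points alone does not decide it.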
# By UniProt entry, the sequences of proteins in these tests, tags left out. Where a name states a change or a piece, a line headed by the entry shows the natural chain unless it says otherwise.
# UniProt Q96KB5: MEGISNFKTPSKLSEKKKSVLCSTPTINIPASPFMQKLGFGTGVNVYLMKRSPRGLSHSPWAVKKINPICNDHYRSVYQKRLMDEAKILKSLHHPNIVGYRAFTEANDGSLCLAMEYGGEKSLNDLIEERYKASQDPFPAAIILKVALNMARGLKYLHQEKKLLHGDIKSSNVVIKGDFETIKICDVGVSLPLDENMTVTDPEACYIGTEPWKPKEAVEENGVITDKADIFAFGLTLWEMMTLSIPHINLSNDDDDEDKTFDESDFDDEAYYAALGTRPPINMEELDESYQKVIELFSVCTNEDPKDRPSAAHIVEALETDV
# Biological target: PBK (UniProt Q96KB5)
# Test: number of time points (of 5) at which kinase-Nluc abundance scored as decreased, DMSO-normalised (count); higher = more persistent destabilization
# Conditions: K562; 2-18 h
row,Structure (SMILES),number of time points
1,Cc1cc(=O)oc2c(C=O)c(O)ccc12 (10 µM),0
2,Nc1nc(F)nc2c1ncn2[C@@H]1O[C@H](CO)[C@@H](O)[C@@H]1O [Fludarabine] (10 µM),0
3,CC(C)(C)c1cc(O)ccc1O (10 µM),0
4,COc1ccc(Cl)c(Nc2nc3ccccc3nc2NS(=O)(=O)c2cccc(NC(=O)C(C)(C)N)c2)c1 [Pilaralisib] (10 µM),0
5,Cc1ccc(CNc2ncnc3ccc(-c4ccc(CO)o4)cc23)o1 (10 µM),0
6,C=CC(=O)Nc1cccc(Nc2nc(Nc3ccc(N4CCN(C(C)=O)CC4)cc3OC)ncc2C(F)(F)F)c1 [Rociletinib] (10 µM),0
7,Nc1ncnc2c1c(-c1cccc(OCc3ccccc3)c1)cn2C1CC(CN2CCC2)C1 (stereo not drawn) (2.5 µM),0
8,Oc1cc(O)c2cc(O)c(-c3cc(O)c(O)c(O)c3)[o+]c2c1 [Delphinidin (chloride)] (10 µM),1
9,CCCS(=O)(=O)Nc1ccc(F)c(C(=O)c2c[nH]c3ncc(-c4ccc(Cl)cc4)cc23)c1F [Vemurafenib] (10 µM),0
10,COCCNc1nc2ccc(C#CC3(O)CCCCC3)cc2n1-c1ccnc(N)n1 (10 µM),0
11,CCC(C)N1c2ccccc2C(=O)N(C)c2cnc(Nc3ccc(C(=O)N4CCC(N5CCN(C)CC5)CC4)cc3OC)nc21 (stereo not drawn) (2.5 µM),0
12,Cc1cc(CN2CCN(c3c(Br)cnc4nc(-c5ccc(N6CCN(C)CC6)cc5)[nH]c34)CC2)no1 (2.5 µM),0
13,O=C(CSC1=NCCN1)NC1CCCCCC1 [ICCB-19 (hydrochloride)] (2.5 µM),0
14,FC(F)(F)c1ccc(CNc2ccc(Cc3c[nH]c4ncccc34)cn2)cc1 (10 µM),0
15,c1ccc(-c2[nH]ncc2-c2ccnc3ccccc23)nc1 (10 µM),0
16,CC#CC(=O)N1CC[C@@H](n2c(=O)n(-c3ccc(Oc4ccccc4)cc3)c3c(N)ncnc32)C1 [Tirabrutinib (hydrochloride)] (10 µM),0
17,CC1=C(C(=O)O)N2C(=O)[C@@H](NC(=O)[C@H](N)C3=CCC=CC3)[C@H]2SC1 [Cephradine] (10 µM),0
18,Cn1cc(-c2ccc3nnc(Sc4ccc5ncccc5c4)n3n2)cn1 (10 µM),0
19,CC(=O)c1c(C)cc2cccc(O)c2c1O [Nepodin] (10 µM),0

row,Structure (SMILES),number of time points
1,NCCNS(=O)(=O)c1cccc2c(Cl)cccc12 [A-3 (hydrochloride)] (10 µM),0
2,N#Cc1c(C2CCNCC2)cc(-c2c(O)cccc2OCC2CC2)nc1N [ACHP (Hydrochloride)] (10 µM),0
3,C[C@@H]1COCCN1c1cc(C2([S@@](C)(=N)=O)CC2)nc(-c2ccnc3[nH]ccc23)n1 [(S)-Ceralasertib] (10 µM),0
4,NC(=O)c1nc(Nc2ccccc2)sc1NC(=O)C1CCCCC1 (10 µM),0
5,Cc1cc(Nc2ncnc3ccc(NC4=NC(C)(C)CO4)cc23)ccc1Oc1ccn2ncnc2c1 [Tucatinib (hemiethanolate)] (2.5 µM),0
6,Cc1ccc(C(=O)Nc2ccc(Oc3cc4cnn(C)c4cc3-c3cn[nH]c3)c(F)c2)c(=O)n1-c1ccc(F)cc1 [Merestinib dihydrochloride] (2.5 µM),0
7,O=C1Nc2ccc(C(=O)c3ccco3)cc2C1=Cc1cc(Cl)c(O)c(Cl)c1 (2.5 µM),2
8,C=CC(=O)Nc1cc(Nc2ncc(Cl)c(-c3c[nH]c4ccccc34)n2)c(OC)cc1N(C)CCN(C)C [Mutant EGFR inhibitor] (2.5 µM),0
9,C[C@@H](c1ccc(-c2ccccc2)c(F)c1)c1cc(NC(=N)N2CCOCC2)on1 [Rimacalib] (10 µM),0
10,Cn1nccc1Nc1nccc(-c2ccn([C@H](CO)c3ccc(Cl)c(F)c3)c(=O)c2)n1 [Ravoxertinib hydrochloride] (10 µM),0
11,Oc1cc2c(cc1O)C(Cc1cccc3ccccc13)NCC2 (stereo not drawn) (10 µM),0
12,O=C1N[C@@H](Cc2c[nH]c3ccccc23)C(=O)N2CCC[C@@H]12 [Brevianamide F] (10 µM),0
13,CCS(=O)(=O)Nc1ccc2[nH]c(O)c(C(=Nc3ccc(CN4CCCCC4)cc3)c3ccccc3)c2c1 [Hesperadin] (2.5 µM),0
14,O=C1NC(=O)/C(=C/c2ccc3nccnc3c2)S1 (10 µM),0
15,CNc1nc(Nc2ccc(C(=O)N3CCOCC3)cc2OC)nc2[nH]cc(Cl)c12 (2.5 µM),0
16,CC#CC(=O)N1CC[C@@H](n2c(=O)n(-c3ccc(Oc4ccccc4)cc3)c3c(N)ncnc32)C1 [Tirabrutinib] (10 µM),0
17,CCc1c(C(=O)NNC(=O)C(O)c2cc(F)cc(F)c2)ccc(O)c1C (stereo not drawn) (10 µM),0
18,CNC(=O)c1ccc(C)c(-n2c(C)cc(OCc3ccc(F)cc3F)c(Br)c2=O)c1 (10 µM),0
19,O=C(NOCC(O)CO)c1cc(Br)c(F)c(F)c1Nc1ccc(I)cc1F (stereo not drawn) (2.5 µM),0

# Laid out differently: entries from further up.
row | Structure (SMILES) | number of time points
15 | CNc1nc(Nc2ccc(C(=O)N3CCOCC3)cc2OC)nc2[nH]cc(Cl)c12 (2.5 µM) | 0
19 | O=C(NOCC(O)CO)c1cc(Br)c(F)c(F)c1Nc1ccc(I)cc1F (stereo not drawn) (2.5 µM) | 0
